PubChem BioAssay AID1224828, NIAID | 2016
Here is an unselected part of about 17,000 deposited reagents. 762 of them (4.5%) count as active. 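Active calls include both raised and lowered p65 entry, mostly lowered; wells with fewer than 50 cells lack a z-score.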 Raw values vary from plate to plate and are shown uncorrected.

- Purpose: 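Regulators linking TLR4 signalling to p65 nuclear translocation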 (primary screen)
- System: mouse RAW264.7 G9 macrophage reporter cells (GFP-p65, Tnf promoter-mCherry)
- Reagent: siRNA pool against mouse genes, 100 nM
- Duration: 2 days siRNA transfection, then 40 min LPS before fixation
- Conditions: LPS (Salmonella minnesota R595) at 10 ng/ml
- Detection: 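Imaged p65 nuclear translocation ratio, normalised to the plate median, converted to robust z-scores and averaged across two replicates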
- Reading the numbers: p65 translocation robust z-score: higher = more nuclear NF-kappaB p65 after LPS than the plate median; nuclear/cytoplasmic p65 ratio: higher = more nuclear NF-kappaB p65
- Active means: 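Called active when z exceeds 3.3 or falls under -1.56 (median of Tlr4 controls), giving activity score of at least 50; no calls for control wells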
- Calls: active = hit (p65 shift raised or lowered); inactive = no clear change

Ska2 scored p65 translocation robust z-score 0.38; nuclear/cytoplasmic p65 ratio, rep 1 = 1.68; nuclear/cytoplasmic p65 ratio, rep 2 = 1.41; low cell count flag enough cells to score; inactive.
For Ptges2, the values are p65 translocation robust z-score 0.09; nuclear/cytoplasmic p65 ratio, rep 1 = 1.44; nuclear/cytoplasmic p65 ratio, rep 2 = 1.18; low cell count flag enough cells to score; inactive.
For Or4c106, the entry reads p65 translocation robust z-score -0.19; nuclear/cytoplasmic p65 ratio, rep 1 = 1.74; nuclear/cytoplasmic p65 ratio, rep 2 = 1.46; low cell count flag enough cells to score; inactive.
With knock-down of Cst8 the results were p65 translocation robust z-score -0.18; nuclear/cytoplasmic p65 ratio, rep 1 = 1.48; nuclear/cytoplasmic p65 ratio, rep 2 = 1.83; low cell count flag enough cells to score; inactive.
Knock-down of S1pr5 gave: nuclear/cytoplasmic p65 ratio, rep 1 = 1.2; nuclear/cytoplasmic p65 ratio, rep 2 = 1.56; low cell count flag fewer than 50 cells per well; well left out of scoring; inactive.
With knock-down of Capn6, the record shows p65 translocation robust z-score 0.06; nuclear/cytoplasmic p65 ratio, rep 1 = 1.62; nuclear/cytoplasmic p65 ratio, rep 2 = 1.77; low cell count flag enough cells to score; inactive.
Catsperd gave nuclear/cytoplasmic p65 ratio, rep 1 = 1.24; nuclear/cytoplasmic p65 ratio, rep 2 = 1.21; low cell count flag fewer than 50 cells per well; well left out of scoring; inactive.
D830013H23Rik showed p65 translocation robust z-score -1.65; nuclear/cytoplasmic p65 ratio, rep 1 = 1.35; nuclear/cytoplasmic p65 ratio, rep 2 = 1.29; low cell count flag enough cells to score; active.

Targets listed so far whose gene name begins with C or c (3):
Cst8 | p65 translocation robust z-score: -0.18; nuclear/cytoplasmic p65 ratio, rep 1: 1.48; nuclear/cytoplasmic p65 ratio, rep 2: 1.83; low cell count flag: enough cells to score; call: inactive
Capn6 | p65 translocation robust z-score: 0.06; nuclear/cytoplasmic p65 ratio, rep 1: 1.62; nuclear/cytoplasmic p65 ratio, rep 2: 1.77; low cell count flag: enough cells to score; call: inactive
Catsperd | nuclear/cytoplasmic p65 ratio, rep 1: 1.24; nuclear/cytoplasmic p65 ratio, rep 2: 1.21; low cell count flag: fewer than 50 cells per well; well left out of scoring; call: inactive

The results go on:
Depletion of Gpr20 came out at: p65 translocation robust z-score -0.08; nuclear/cytoplasmic p65 ratio, rep 1 = 1.49; nuclear/cytoplasmic p65 ratio, rep 2 = 1.58; low cell count flag enough cells to score; inactive.
Against Ube2k, the entry reads p65 translocation robust z-score 1.21; nuclear/cytoplasmic p65 ratio, rep 1 = 1.41; nuclear/cytoplasmic p65 ratio, rep 2 = 1.54; low cell count flag enough cells to score; inactive.
With knock-down of Trp53inp2, the record shows p65 translocation robust z-score 0.76; nuclear/cytoplasmic p65 ratio, rep 1 = 1.61; nuclear/cytoplasmic p65 ratio, rep 2 = 1.58; low cell count flag enough cells to score; inactive.
Tpk1 showed nuclear/cytoplasmic p65 ratio, rep 1 = 1.73; nuclear/cytoplasmic p65 ratio, rep 2 = 1.37; low cell count flag fewer than 50 cells per well; well left out of scoring; inactive.
Against Kcnj15, the values are p65 translocation robust z-score -0.81; nuclear/cytoplasmic p65 ratio, rep 1 = 1.35; nuclear/cytoplasmic p65 ratio, rep 2 = 1.4; low cell count flag enough cells to score; inactive.
Depletion of Lrr1 gave: p65 translocation robust z-score -0.33; nuclear/cytoplasmic p65 ratio, rep 1 = 1.37; nuclear/cytoplasmic p65 ratio, rep 2 = 1.15; low cell count flag enough cells to score; inactive.
After knock-down of Or5w10 the results were p65 translocation robust z-score -1.62; nuclear/cytoplasmic p65 ratio, rep 1 = 1.43; nuclear/cytoplasmic p65 ratio, rep 2 = 1.33; low cell count flag enough cells to score; active.
After knock-down of Or5p70, the record shows nuclear/cytoplasmic p65 ratio, rep 1 = 1.45; nuclear/cytoplasmic p65 ratio, rep 2 = 1.24; low cell count flag fewer than 50 cells per well; well left out of scoring; inactive.
With knock-down of Cdh5, the record shows p65 translocation robust z-score 1.37; nuclear/cytoplasmic p65 ratio, rep 1 = 1.68; nuclear/cytoplasmic p65 ratio, rep 2 = 1.53; low cell count flag enough cells to score; inactive.
Cftr gave p65 translocation robust z-score -0.43; nuclear/cytoplasmic p65 ratio, rep 1 = 1.35; nuclear/cytoplasmic p65 ratio, rep 2 = 1.32; low cell count flag enough cells to score; inactive.
For Cbx5, the entry reads p65 translocation robust z-score 0.2; nuclear/cytoplasmic p65 ratio, rep 1 = 1.54; nuclear/cytoplasmic p65 ratio, rep 2 = 1.36; low cell count flag enough cells to score; inactive.
Knock-down of Hmgcl gave: p65 translocation robust z-score -0.78; nuclear/cytoplasmic p65 ratio, rep 1 = 1.29; nuclear/cytoplasmic p65 ratio, rep 2 = 1.32; low cell count flag enough cells to score; inactive.
Pcnt scored p65 translocation robust z-score -0.03; nuclear/cytoplasmic p65 ratio, rep 1 = 1.44; nuclear/cytoplasmic p65 ratio, rep 2 = 1.2; low cell count flag enough cells to score; inactive.
